Literature values as cited in patent US20240374569A1, “HDAC3 INHIBITORS FOR THE TREATMENT OF LANGERHANS CELL HISTIOCYTOSIS AND LANGERHANS CELL SARCOMA” (HENRY FORD HEALTH SYSTEM, priority 2021, published 2024).
Some results were stated once for a whole list of compounds, not compound by compound.

Test system: BRAF (V600)-mutated metastatic melanoma
Settings: clinical trial data; cited from earlier work

Compound: CC(C)(C)c1nc(-c2cccc(NS(=O)(=O)c3c(F)cccc3F)c2F)c(-c2ccnc(N)n2)s1 [Dabrafenib]
- time to occurrence of resistance: 6 to 7 months
